# No constants are given. Whether binding was seen depends on the method and setting. Some results given as binding are weak or reduced against the parent protein; the word gives no strength.
# T1: P2X4 receptor peptide, amino acids 301-313 of rat P2X4 (…), N-terminal biotin (rat)
# T1 sequence (peptide, N-terminal biotin tag): RDLAGKEQRTLTK
# T2: P2X4 receptor on mouse trigeminal peripheral nerve cells (TG) (mouse) (UniProt Q9JJX6)
# T2 sequence (looked up): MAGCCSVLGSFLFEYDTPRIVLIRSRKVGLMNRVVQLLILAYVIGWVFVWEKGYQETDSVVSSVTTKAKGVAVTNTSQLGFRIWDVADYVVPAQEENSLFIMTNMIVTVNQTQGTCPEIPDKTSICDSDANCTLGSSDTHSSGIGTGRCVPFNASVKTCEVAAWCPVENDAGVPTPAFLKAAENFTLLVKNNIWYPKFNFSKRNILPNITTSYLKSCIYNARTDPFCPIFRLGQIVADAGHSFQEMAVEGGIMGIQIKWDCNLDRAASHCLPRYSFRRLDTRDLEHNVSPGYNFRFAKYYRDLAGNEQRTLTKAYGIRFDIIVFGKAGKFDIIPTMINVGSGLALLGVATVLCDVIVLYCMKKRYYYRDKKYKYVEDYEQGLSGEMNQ
# Experiments:
# [1] = target: T1, P2X4 receptor peptide, amino acids 301-313 of rat P2X4 (…), N-terminal biotin (rat); assay: indirect ELISA on P2X4 peptide
# [2] = target: T1, P2X4 receptor peptide, amino acids 301-313 of rat P2X4 (…), N-terminal biotin (rat); assay: FIG. 2B binding assay (indirect ELISA)
# [3] = target: T2, P2X4 receptor on mouse trigeminal peripheral nerve cells (TG) (mouse); assay: adsorption block of immunostaining on isolated mouse trigeminal nerve cells
binding [1],binding [2],binding [3],Binder
binds,binds,–,anti-P2X4 scFv95 (scFv) scFv: MAEVKLVESGGGLVQPGGSLRLSCATSGFTFTDYYMSWVRQPPGKALEWLGFIRNKANGYTTEYSASVKGRFTISRDNSQSILYLQMNTLRAEDSATYYCARWEGDLLYAMDYWGQGTSVTVSSGGGGSGGGGSGGGGGSGGGGSDIQMTQTTSSLSASLGDRVTISCSASQGISNYLNWYQQKPDGTVKLLIYYTSSLHSGVPSRFSGSGSGTDYSLTISNLEPEDIATYYCQQYSKLPWTFGGGTKLEIKRADAAALEHHHHHH
binds,binds,binds,anti-P2X4 scFv12 (scFv) scFv: MADVKLQESGPGLVKPSQSLSLTCSVTGYSITSGYYWNWIRQFPGNKLEWMGYISYDGSNNYNPSLKNRISITRDTSKNQFFLKLNSVTTEDTATYYCARSDYDLYYYAMDYWGQGTSVTVSSAKTTPPSGGGGSGGGGSGGGGGSGGGGSDIVMTQSPATLSVTPGDRVSLSCRASQSISDYLHWYQQKSHESPRLLIKYASQSISGIPSRFSGSGSGSDFTLSINSVEPEDVGVYYCQNGHSFPLTFGSGTKLEIKRADAAALEHHHHHH

# Reference: patent publication US20220298238A1
